What was measured:
Settings in all cases: at 1 µM
[1] = biological target: Casein kinase I isoform epsilon (Homo sapiens, UniProt P49674); assay: Selectivity interaction (KinomeScan (DiscoverX)) EUB0001581a CSNK1E
[2] = biological target: Mitogen-activated protein kinase kinase kinase 10 (Homo sapiens) (UniProt Q02779); assay: Selectivity interaction (KinomeScan (DiscoverX)) EUB0001581a MAP3K10
[3] = biological target: Tyrosine-protein kinase ITK/TSK (Homo sapiens) (UniProt Q08881); assay: Selectivity interaction (KinomeScan (DiscoverX)) EUB0001581a ITK
Misshapen-like kinase 1 = Misshapen-like kinase 1 (Homo sapiens, UniProt Q8N4C8); assay: Selectivity interaction (KinomeScan (DiscoverX)) EUB0001581a MINK1
[4] = biological target: Mitogen-activated protein kinase kinase kinase 2 (Homo sapiens) (UniProt Q9Y2U5); assay: Selectivity interaction (KinomeScan (DiscoverX)) EUB0001581a MAP3K2
[5] = biological target: SNF-related serine/threonine-protein kinase (Homo sapiens) (UniProt Q9NRH2); assay: Selectivity interaction (KinomeScan (DiscoverX)) EUB0001581a SNRK
[6] = biological target: Cyclin-dependent kinase 18 (Homo sapiens) (UniProt Q07002); assay: Selectivity interaction (KinomeScan (DiscoverX)) EUB0001581a CDK18
[7] = test system: Tyrosine-protein kinase ABL1 (Homo sapiens), P00519 [T315I]; assay: Selectivity interaction (KinomeScan (DiscoverX)) EUB0001581a ABL1
[8] = biological target: Aurora kinase C (Homo sapiens) (UniProt Q9UQB9); assay: Selectivity interaction (KinomeScan (DiscoverX)) EUB0001581a AURKC
[9] = biological target: Cyclin-dependent kinase-like 5 (Homo sapiens) (UniProt O76039); assay: Selectivity interaction (KinomeScan (DiscoverX)) EUB0001581a CDKL5
[10] = biological target: Ephrin type-B receptor 3 (Homo sapiens) (UniProt P54753); assay: Selectivity interaction (KinomeScan (DiscoverX)) EUB0001581a EPHB3
[11] = biological target: Mitogen-activated protein kinase kinase kinase 19 (Homo sapiens) (UniProt Q56UN5); assay: Selectivity interaction (KinomeScan (DiscoverX)) EUB0001581a MAP3K19
[12] = biological target: Calcium/calmodulin-dependent protein kinase type 1 (Homo sapiens) (UniProt Q14012); assay: Selectivity interaction (KinomeScan (DiscoverX)) EUB0001581a CAMK1
[13] = biological target: Serine/threonine-protein kinase SIK3 (Homo sapiens) (UniProt Q9Y2K2); assay: Selectivity interaction (KinomeScan (DiscoverX)) EUB0001581a SIK3
[14] = biological target: Ephrin type-A receptor 7 (Homo sapiens) (UniProt Q15375); assay: Selectivity interaction (KinomeScan (DiscoverX)) EUB0001581a EPHA7
[15] = biological target: Phosphatidylinositol 4-phosphate 5-kinase type-1 alpha (Homo sapiens) (UniProt Q99755); assay: Selectivity interaction (KinomeScan (DiscoverX)) EUB0001581a PIP5K1A
[16] = biological target: Phosphorylase b kinase gamma catalytic chain, liver/testis isoform (Homo sapiens) (UniProt P15735); assay: Selectivity interaction (KinomeScan (DiscoverX)) EUB0001581a PHKG2
[17] = biological target: Citron Rho-interacting kinase (Homo sapiens) (UniProt O14578); assay: Selectivity interaction (KinomeScan (DiscoverX)) EUB0001581a CIT
[18] = test system: Leucine-rich repeat serine/threonine-protein kinase 2 (Homo sapiens), Q5S007 [G2019S]; assay: (§1) Selectivity interaction (KinomeScan (DiscoverX)) EUB0001581a LRRK2
[19] = biological target: Leucine-rich repeat serine/threonine-protein kinase 2 (Homo sapiens, UniProt Q5S007); assay: as §1
[20] = biological target: Homeodomain-interacting protein kinase 4 (Homo sapiens) (UniProt Q8NE63); assay: Selectivity interaction (KinomeScan (DiscoverX)) EUB0001581a HIPK4
[21] = biological target: Serine/threonine-protein kinase Chk2 (Homo sapiens) (UniProt O96017); assay: Selectivity interaction (KinomeScan (DiscoverX)) EUB0001581a CHEK2
[22] = biological target: Serine/threonine-protein kinase DCLK3 (Homo sapiens) (UniProt Q9C098)
[23] = biological target: Tyrosine-protein kinase Fyn (Homo sapiens) (UniProt P06241); assay: Selectivity interaction (KinomeScan (DiscoverX)) EUB0001581a FYN
[24] = biological target: Serine/threonine-protein kinase DCLK1 (Homo sapiens) (UniProt O15075); assay: Selectivity interaction (KinomeScan (DiscoverX)) EUB0001581a DCLK1
[25] = biological target: Mitogen-activated protein kinase kinase kinase 12 (Homo sapiens) (UniProt Q12852); assay: Selectivity interaction (KinomeScan (DiscoverX)) EUB0001581a MAP3K12
[26] = biological target: Fibroblast growth factor receptor 4 (Homo sapiens, UniProt P22455); assay: Selectivity interaction (KinomeScan (DiscoverX)) EUB0001581a FGFR4
[27] = biological target: Tyrosine-protein kinase ABL2 (Homo sapiens, UniProt P42684); assay: Selectivity interaction (KinomeScan (DiscoverX)) EUB0001581a ABL2
[28] = biological target: Cyclin-dependent kinase 17 (Homo sapiens) (UniProt Q00537); assay: Selectivity interaction (KinomeScan (DiscoverX)) EUB0001581a CDK17
[29] = biological target: Protein kinase C delta type (Homo sapiens) (UniProt Q05655); assay: Selectivity interaction (KinomeScan (DiscoverX)) EUB0001581a PRKCD
[30] = biological target: Serine/threonine-protein kinase 24 (Homo sapiens) (UniProt Q9Y6E0); assay: Selectivity interaction (KinomeScan (DiscoverX)) EUB0001581a STK24
[31] = biological target: Ephrin type-A receptor 2 (Homo sapiens) (UniProt P29317); assay: Selectivity interaction (KinomeScan (DiscoverX)) EUB0001581a EPHA2
[32] = biological target: Serine/threonine-protein kinase SIK2 (Homo sapiens) (UniProt Q9H0K1); assay: Selectivity interaction (KinomeScan (DiscoverX)) EUB0001581a SIK2
[33] = biological target: Phosphorylase b kinase gamma catalytic chain, skeletal muscle/heart isoform (Homo sapiens) (UniProt Q16816); assay: Selectivity interaction (KinomeScan (DiscoverX)) EUB0001581a PHKG1
[34] = biological target: Serine/threonine-protein kinase 3 (Homo sapiens) (UniProt Q13188); assay: Selectivity interaction (KinomeScan (DiscoverX)) EUB0001581a STK3
[35] = biological target: Non-receptor tyrosine-protein kinase TYK2 (Homo sapiens, UniProt P29597); assay: Selectivity interaction (KinomeScan (DiscoverX)) EUB0001581a TYK2
[36] = biological target: Serine/threonine-protein kinase PAK 6 (Homo sapiens) (UniProt Q9NQU5); assay: Selectivity interaction (KinomeScan (DiscoverX)) EUB0001581a PAK6
[37] = biological target: Mitogen-activated protein kinase 1 (Homo sapiens, UniProt P28482); assay: Selectivity interaction (KinomeScan (DiscoverX)) EUB0001581a MAPK1
[38] = biological target: Macrophage colony-stimulating factor 1 receptor (Homo sapiens) (UniProt P07333); assay: Selectivity interaction (KinomeScan (DiscoverX)) EUB0001581a CSF1R

The chains behind the UniProt entries cited, without tags or fusion partners. Where a name states a change or a piece, a line headed by the entry shows the natural chain unless it says otherwise.
UniProt Q02779: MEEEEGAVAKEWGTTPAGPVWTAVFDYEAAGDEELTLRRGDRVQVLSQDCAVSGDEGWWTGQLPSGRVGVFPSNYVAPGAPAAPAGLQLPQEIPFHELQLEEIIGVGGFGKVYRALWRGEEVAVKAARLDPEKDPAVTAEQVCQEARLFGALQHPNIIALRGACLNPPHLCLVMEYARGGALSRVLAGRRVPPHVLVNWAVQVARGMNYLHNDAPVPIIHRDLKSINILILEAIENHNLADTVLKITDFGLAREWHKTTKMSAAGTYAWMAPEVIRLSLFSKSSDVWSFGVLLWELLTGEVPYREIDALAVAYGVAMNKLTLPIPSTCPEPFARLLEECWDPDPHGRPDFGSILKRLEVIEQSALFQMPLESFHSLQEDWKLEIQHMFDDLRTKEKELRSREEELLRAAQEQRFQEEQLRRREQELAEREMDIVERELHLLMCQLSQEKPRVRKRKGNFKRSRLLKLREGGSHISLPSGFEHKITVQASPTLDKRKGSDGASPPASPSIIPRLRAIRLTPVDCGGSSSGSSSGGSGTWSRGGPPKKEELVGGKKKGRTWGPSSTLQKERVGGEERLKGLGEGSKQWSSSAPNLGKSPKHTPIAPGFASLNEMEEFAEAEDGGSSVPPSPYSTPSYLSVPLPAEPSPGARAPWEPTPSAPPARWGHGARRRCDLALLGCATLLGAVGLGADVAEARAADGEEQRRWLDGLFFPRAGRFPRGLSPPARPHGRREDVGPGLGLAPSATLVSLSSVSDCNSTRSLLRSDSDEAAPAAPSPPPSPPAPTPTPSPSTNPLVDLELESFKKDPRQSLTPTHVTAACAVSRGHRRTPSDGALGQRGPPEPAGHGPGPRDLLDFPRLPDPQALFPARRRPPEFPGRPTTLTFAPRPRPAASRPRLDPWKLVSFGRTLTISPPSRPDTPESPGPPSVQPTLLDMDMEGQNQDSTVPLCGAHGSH
UniProt Q56UN5: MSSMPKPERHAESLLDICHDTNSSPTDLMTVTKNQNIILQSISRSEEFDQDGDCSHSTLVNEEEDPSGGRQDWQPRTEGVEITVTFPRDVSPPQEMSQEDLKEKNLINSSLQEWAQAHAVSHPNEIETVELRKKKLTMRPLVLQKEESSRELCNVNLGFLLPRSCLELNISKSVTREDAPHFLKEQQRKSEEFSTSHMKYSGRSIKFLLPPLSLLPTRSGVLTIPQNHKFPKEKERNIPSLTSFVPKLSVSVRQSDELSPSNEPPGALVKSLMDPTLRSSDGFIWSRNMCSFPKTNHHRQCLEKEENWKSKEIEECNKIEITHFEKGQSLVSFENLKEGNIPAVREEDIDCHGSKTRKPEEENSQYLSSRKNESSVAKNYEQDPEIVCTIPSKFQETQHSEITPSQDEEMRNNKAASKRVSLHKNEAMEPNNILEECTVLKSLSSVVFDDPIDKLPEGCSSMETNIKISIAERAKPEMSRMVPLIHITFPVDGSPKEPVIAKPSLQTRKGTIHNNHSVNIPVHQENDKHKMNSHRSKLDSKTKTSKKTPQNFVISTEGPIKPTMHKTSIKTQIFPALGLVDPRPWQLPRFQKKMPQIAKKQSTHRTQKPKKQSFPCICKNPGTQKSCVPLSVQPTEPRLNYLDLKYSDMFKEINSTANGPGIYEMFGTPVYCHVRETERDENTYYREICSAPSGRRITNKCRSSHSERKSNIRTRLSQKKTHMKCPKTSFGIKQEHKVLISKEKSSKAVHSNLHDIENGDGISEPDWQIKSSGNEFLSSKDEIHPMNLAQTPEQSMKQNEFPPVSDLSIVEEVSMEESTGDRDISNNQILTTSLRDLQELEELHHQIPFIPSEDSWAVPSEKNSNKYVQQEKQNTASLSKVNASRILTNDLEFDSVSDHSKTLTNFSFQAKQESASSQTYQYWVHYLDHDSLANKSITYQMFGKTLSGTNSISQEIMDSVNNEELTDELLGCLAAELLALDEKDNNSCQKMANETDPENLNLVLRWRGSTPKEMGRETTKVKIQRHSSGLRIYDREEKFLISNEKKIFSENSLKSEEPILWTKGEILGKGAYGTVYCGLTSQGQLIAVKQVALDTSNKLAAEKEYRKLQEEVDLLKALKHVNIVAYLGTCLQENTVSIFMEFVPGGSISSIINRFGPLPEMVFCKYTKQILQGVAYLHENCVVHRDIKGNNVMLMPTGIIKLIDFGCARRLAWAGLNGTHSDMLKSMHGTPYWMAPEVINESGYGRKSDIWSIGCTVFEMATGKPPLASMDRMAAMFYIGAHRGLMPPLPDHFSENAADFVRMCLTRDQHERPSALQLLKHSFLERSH
UniProt O96017, whole entry: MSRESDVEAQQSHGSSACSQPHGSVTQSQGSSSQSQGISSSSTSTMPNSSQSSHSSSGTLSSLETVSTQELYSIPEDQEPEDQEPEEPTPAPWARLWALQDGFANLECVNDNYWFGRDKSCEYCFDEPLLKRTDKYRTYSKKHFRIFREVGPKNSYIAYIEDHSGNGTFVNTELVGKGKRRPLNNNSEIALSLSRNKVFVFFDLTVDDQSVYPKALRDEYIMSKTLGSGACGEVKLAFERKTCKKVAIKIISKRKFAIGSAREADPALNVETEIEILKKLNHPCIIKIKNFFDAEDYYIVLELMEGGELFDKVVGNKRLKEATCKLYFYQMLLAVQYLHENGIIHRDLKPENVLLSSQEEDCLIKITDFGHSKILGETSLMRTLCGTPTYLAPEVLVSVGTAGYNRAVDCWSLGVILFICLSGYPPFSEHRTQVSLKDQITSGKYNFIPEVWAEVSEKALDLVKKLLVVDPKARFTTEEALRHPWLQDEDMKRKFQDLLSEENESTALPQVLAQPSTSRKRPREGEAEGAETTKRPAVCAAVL
UniProt O15075: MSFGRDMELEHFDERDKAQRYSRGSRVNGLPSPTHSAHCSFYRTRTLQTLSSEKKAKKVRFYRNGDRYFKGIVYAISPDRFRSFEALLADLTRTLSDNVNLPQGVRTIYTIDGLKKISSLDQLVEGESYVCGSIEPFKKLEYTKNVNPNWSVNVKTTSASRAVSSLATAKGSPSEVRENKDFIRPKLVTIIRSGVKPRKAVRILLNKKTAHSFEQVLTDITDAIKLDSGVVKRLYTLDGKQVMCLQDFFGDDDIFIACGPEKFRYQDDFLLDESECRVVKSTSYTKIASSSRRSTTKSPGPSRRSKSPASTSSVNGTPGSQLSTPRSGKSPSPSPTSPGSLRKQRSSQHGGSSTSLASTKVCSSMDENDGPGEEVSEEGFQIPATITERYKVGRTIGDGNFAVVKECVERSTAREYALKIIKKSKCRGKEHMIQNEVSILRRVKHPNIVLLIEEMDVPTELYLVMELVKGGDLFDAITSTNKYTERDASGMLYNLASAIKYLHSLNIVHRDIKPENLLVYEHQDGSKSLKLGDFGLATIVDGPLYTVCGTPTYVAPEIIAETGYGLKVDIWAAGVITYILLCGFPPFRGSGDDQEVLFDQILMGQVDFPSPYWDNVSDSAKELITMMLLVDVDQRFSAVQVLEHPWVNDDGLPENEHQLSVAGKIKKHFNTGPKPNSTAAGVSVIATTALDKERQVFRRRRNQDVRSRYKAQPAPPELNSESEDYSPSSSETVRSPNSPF
UniProt P29317, whole entry: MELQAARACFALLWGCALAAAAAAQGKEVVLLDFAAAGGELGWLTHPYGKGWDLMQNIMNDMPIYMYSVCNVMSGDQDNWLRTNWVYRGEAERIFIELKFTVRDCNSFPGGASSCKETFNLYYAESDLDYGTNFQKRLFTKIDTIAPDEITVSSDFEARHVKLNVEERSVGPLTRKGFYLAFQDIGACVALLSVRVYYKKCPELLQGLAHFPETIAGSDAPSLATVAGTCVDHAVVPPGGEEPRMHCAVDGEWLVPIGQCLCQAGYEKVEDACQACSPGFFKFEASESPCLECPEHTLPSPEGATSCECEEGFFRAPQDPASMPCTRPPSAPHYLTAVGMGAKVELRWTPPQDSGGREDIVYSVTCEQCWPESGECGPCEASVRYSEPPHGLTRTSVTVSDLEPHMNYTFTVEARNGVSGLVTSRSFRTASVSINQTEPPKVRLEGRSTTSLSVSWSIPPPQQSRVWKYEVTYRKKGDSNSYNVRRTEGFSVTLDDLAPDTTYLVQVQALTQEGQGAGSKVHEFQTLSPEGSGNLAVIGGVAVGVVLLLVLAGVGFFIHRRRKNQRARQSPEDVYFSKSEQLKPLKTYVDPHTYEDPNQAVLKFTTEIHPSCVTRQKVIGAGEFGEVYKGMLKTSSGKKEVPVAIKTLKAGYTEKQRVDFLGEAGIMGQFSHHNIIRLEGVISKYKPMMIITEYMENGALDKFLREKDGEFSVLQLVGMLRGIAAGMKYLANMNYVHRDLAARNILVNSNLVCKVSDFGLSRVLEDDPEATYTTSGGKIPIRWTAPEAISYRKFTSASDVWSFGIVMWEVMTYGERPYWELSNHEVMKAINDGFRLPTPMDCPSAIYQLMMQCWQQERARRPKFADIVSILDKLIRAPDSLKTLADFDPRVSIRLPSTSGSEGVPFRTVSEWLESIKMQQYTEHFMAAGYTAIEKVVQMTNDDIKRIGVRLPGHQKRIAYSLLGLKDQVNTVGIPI
UniProt Q16816: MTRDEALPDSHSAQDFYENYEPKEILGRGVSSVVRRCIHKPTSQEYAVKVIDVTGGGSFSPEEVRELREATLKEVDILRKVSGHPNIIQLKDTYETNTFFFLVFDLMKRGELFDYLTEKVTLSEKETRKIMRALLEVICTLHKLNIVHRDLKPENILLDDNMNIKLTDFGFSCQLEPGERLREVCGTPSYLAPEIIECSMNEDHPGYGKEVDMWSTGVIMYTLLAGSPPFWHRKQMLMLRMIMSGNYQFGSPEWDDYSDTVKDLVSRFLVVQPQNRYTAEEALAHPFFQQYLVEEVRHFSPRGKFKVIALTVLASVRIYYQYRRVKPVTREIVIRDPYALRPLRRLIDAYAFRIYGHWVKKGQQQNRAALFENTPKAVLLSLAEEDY
UniProt P29597: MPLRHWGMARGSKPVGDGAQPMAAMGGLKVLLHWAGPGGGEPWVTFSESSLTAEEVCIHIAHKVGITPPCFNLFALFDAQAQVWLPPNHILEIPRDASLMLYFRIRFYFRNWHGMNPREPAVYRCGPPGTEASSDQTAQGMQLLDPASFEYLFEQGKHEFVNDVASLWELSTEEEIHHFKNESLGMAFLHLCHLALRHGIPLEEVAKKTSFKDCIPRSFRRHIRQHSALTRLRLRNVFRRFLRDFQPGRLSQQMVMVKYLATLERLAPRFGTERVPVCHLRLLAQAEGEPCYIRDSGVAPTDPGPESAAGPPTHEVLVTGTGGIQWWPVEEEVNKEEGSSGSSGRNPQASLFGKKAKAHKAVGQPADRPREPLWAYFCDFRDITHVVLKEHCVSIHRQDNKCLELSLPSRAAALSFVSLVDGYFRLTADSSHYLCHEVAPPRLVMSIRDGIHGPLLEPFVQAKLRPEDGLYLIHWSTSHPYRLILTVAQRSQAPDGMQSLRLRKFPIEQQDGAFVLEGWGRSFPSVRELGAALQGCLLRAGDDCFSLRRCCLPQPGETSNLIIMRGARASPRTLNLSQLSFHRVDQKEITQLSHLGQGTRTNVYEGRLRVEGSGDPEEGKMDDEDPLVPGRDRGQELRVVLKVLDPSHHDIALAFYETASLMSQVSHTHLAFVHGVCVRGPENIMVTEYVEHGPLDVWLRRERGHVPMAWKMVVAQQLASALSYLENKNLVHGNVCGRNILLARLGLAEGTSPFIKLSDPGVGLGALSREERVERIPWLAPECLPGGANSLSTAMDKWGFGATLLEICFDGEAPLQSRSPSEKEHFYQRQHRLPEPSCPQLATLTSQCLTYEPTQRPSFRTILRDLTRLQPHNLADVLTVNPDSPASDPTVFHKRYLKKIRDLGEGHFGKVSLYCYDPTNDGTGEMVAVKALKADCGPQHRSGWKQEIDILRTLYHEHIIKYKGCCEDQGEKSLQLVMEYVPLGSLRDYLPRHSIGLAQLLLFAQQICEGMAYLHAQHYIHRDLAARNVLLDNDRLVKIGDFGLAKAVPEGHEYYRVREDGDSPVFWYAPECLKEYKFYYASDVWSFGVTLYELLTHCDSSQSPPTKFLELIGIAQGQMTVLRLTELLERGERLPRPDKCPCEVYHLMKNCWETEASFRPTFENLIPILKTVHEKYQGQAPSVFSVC
UniProt P28482, whole entry: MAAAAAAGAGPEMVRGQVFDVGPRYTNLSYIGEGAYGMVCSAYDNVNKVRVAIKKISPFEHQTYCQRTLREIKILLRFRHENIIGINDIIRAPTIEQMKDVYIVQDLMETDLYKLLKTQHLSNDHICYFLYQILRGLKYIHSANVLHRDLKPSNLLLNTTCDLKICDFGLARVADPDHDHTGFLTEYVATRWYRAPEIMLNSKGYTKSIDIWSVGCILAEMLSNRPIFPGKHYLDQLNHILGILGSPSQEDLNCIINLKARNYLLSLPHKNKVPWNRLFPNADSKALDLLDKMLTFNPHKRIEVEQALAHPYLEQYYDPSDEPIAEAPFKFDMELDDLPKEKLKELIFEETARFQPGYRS

C[C@@H]1C[C@H](N)C[C@H](c2ccncc2NC(=O)c2ccc(F)c(-c3c(F)cccc3F)n2)C1
% of control [1]: 87%
% of control [2]: 100%
% of control [3]: 99%
% of control (Misshapen-like kinase 1): 68%
% of control [4]: 88%
% of control [5]: 75%
% of control [6]: 99%
% of control [7]: 80%
% of control [8]: 100%
% of control [9]: 100%
% of control [10]: 77%
% of control [11]: 100%
% of control [12]: 100%
% of control [13]: 100%
% of control [14]: 93%
% of control [15]: 100%
% of control [16]: 100%
% of control [17]: 38%
% of control [18]: 79%
% of control [19]: 100%
% of control [20]: 84%
% of control [21]: 73%
% of control [22]: 94%
% of control [23]: 100%
% of control [24]: 87%
% of control [25]: 100%
% of control [26]: 91%
% of control [27]: 100%
% of control [28]: 100%
% of control [29]: 72%
% of control [30]: 99%
% of control [31]: 100%
% of control [32]: 100%
% of control [33]: 100%
% of control [34]: 78%
% of control [35]: 88%
% of control [36]: 74%
% of control [37]: 100%
% of control [38]: 81%

From ChEMBL document CHEMBL5465560, “Selectivity Literature for EUbOPEN Chemogenomic Library” (2024)
